Experimental data as given in patent US20230340089A1 (CITY OF HOPE, published 2023).
No constants are given. Whether binding was seen depends on the method and setting. Some entries that bind do so weakly or less than the wild type.

What was measured:
[1] = target: T1, Structural Maintenance of Chromosome-1A (SMC1A) (human) (UniProt Q14683); assay: cell surface binding on tumor cells; method not given
T1 sequence (looked up): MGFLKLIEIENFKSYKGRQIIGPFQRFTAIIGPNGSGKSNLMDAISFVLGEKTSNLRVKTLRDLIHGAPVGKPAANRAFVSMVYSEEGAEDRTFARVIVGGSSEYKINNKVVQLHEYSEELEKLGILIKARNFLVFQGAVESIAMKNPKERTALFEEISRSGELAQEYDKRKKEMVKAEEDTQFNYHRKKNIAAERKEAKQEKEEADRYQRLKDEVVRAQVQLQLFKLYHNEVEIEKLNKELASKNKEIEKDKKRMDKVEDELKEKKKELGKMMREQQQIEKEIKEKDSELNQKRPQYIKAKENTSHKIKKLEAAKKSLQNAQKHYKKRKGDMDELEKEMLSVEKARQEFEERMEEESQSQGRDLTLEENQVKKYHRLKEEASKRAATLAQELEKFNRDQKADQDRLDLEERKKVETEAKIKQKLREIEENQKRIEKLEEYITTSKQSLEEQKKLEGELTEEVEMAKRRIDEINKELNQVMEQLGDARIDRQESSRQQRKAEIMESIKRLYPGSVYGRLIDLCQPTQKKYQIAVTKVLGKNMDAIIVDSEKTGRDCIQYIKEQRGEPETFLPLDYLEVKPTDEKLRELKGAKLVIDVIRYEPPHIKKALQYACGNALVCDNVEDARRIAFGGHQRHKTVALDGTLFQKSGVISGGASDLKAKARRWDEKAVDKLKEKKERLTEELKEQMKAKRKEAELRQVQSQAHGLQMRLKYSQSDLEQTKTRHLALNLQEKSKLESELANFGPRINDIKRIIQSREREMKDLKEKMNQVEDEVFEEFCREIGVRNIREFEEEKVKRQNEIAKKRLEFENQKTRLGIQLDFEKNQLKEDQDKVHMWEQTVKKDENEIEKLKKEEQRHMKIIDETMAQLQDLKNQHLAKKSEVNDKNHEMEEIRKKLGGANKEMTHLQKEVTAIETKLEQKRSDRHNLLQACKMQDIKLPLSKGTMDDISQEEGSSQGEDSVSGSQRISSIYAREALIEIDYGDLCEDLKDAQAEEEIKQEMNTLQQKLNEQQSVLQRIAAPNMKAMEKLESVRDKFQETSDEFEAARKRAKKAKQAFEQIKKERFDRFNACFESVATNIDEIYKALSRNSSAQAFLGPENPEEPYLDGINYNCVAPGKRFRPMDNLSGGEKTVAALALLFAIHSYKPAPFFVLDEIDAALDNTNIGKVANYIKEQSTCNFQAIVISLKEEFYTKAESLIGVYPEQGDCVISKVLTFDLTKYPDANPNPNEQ

[2] = target: T1, Structural Maintenance of Chromosome-1A (SMC1A) (human); assay: LI-COR based cell surface assay on tumor cells
[3] = target: T1, Structural Maintenance of Chromosome-1A (SMC1A) (human); assay: flow cytometry on live cancer cells and ICC

Measured: binding

B1: SMC1A4-chimeric antibody (antibody, V domains shown)
VH: VQLQQSGAELVKPGASVKLSCTASGFNIKDPYMHWVKQRPEQGLEWIGWITPANGNTKYDPKFQAKATITADTYSNTAYLQFSSLTSEDTAVYFCARSGDAYYWAWFAYWGQGTLVTVSA
VL: DVLMTQTPLSLTVSLGDQASISCRSSQSIVHSNGNTYLEWYLQKPGQSPKLLIYKVSNRFSGVSDRFSGSGSGTDFTLKISRVEAEDLGVYYCFQGPLYTFGGGTKLEIKR
notes: Chimeric IgG detected with anti-human secondary antibodies; also called chimeric SMC1A4; SMC1A4 chimeric monoclonal antibody
binds: all assays above
